In the supplement of paper PMC10849652 one finds log2 fold change data, which are given here for 33 targets.

Sequences of proteins named here, by UniProt entry; tags and fusion partners are left off. A change or cut given only in a name is not applied to a line headed by its entry.
UniProt Q6P996: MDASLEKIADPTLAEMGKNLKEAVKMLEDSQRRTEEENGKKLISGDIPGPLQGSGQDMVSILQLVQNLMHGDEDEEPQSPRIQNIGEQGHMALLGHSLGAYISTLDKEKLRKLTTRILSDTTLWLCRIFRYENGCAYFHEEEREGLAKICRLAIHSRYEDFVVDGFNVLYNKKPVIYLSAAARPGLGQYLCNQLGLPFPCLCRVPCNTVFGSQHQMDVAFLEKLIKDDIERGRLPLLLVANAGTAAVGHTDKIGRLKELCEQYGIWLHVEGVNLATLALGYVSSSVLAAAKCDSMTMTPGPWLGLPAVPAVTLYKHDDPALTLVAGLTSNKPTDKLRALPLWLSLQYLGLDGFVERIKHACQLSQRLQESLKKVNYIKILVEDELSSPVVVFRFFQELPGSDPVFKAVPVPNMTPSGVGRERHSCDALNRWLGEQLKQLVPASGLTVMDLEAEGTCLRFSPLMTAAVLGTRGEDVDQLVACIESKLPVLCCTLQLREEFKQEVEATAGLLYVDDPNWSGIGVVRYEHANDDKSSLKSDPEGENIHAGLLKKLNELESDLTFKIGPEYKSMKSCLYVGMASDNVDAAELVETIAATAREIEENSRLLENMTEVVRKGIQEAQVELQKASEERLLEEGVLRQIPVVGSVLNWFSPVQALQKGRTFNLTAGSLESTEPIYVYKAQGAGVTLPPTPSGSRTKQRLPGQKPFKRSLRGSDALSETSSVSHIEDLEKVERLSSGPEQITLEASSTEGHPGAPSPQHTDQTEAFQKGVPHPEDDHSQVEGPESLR
UniProt P43034: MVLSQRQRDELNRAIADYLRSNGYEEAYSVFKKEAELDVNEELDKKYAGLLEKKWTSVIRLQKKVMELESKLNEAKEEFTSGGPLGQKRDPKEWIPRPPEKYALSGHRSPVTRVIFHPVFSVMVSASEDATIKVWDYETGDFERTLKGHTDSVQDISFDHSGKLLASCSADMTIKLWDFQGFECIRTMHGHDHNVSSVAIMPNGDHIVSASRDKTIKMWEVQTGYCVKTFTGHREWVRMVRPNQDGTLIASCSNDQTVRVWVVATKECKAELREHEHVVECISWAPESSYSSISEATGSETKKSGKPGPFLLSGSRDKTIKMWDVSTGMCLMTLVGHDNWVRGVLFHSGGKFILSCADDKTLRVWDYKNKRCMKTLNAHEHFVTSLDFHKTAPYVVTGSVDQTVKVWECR
UniProt Q8NEN9: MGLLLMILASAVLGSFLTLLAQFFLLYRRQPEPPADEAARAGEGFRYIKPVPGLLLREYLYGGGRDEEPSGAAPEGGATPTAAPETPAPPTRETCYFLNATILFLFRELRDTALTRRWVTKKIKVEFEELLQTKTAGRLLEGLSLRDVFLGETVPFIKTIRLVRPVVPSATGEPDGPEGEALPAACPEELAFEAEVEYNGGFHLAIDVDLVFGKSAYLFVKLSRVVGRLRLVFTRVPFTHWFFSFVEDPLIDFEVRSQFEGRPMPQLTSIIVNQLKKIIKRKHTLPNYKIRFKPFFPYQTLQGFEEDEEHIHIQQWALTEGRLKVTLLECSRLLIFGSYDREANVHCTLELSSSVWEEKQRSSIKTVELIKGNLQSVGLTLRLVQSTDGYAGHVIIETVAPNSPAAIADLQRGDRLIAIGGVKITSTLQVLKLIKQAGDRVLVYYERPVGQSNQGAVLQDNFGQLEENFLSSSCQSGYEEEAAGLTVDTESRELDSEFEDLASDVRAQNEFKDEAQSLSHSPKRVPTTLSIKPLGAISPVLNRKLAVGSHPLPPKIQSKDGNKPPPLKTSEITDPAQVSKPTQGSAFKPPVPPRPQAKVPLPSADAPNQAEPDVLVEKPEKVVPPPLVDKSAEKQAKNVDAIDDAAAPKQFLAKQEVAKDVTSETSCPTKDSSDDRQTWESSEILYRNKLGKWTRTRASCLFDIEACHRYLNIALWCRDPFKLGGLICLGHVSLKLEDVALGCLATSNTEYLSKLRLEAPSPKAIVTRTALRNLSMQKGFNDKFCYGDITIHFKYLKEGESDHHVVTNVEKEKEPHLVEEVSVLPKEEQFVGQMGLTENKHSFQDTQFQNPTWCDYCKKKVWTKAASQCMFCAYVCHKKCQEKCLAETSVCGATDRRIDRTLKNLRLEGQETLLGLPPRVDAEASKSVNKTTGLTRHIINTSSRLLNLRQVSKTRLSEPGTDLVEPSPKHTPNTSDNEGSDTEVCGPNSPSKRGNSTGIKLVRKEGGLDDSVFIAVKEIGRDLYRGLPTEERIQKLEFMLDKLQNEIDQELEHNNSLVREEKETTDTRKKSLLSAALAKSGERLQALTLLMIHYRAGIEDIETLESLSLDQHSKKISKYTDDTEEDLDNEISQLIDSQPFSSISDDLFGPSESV
UniProt O00623: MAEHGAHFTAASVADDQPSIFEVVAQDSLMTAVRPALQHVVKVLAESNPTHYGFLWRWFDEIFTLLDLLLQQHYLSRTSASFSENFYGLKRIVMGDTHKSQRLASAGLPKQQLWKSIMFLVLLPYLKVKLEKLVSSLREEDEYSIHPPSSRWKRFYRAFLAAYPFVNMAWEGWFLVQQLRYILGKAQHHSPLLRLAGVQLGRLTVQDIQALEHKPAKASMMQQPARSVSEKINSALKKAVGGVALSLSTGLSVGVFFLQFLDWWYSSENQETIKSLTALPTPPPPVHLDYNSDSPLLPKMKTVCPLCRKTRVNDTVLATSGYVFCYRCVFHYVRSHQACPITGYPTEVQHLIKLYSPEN
UniProt P61457: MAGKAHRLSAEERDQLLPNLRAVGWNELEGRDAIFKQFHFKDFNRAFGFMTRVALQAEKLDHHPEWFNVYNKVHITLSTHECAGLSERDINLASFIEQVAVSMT
UniProt Q14554: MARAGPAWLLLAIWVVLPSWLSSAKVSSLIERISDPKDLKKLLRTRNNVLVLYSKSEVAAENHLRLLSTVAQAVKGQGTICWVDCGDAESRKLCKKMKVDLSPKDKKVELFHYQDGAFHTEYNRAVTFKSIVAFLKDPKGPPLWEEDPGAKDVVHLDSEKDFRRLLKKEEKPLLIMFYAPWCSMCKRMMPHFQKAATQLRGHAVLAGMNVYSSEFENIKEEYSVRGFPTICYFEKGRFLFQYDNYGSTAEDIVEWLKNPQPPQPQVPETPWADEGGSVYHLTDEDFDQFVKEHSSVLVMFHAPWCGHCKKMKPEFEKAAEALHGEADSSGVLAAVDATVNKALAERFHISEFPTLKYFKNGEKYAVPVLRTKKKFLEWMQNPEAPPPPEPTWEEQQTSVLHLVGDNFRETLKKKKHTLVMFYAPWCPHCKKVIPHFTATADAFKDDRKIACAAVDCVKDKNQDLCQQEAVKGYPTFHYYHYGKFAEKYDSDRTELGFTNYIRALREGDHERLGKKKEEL
UniProt O00764: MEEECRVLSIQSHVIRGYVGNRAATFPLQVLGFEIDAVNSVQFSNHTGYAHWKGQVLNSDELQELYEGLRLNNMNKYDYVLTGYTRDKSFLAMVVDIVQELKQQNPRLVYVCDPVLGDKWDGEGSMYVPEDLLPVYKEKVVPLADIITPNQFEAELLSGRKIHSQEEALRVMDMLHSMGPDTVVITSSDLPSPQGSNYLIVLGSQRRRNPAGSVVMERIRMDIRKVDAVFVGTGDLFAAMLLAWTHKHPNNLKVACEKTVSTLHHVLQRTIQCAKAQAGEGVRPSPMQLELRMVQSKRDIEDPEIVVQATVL
UniProt P30039: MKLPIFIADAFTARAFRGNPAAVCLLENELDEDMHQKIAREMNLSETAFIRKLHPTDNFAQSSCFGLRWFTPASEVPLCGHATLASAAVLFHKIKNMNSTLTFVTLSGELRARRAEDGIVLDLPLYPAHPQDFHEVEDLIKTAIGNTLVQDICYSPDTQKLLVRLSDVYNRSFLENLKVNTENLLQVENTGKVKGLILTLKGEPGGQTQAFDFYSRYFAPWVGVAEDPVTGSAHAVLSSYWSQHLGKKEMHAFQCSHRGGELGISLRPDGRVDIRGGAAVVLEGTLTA
UniProt O43933: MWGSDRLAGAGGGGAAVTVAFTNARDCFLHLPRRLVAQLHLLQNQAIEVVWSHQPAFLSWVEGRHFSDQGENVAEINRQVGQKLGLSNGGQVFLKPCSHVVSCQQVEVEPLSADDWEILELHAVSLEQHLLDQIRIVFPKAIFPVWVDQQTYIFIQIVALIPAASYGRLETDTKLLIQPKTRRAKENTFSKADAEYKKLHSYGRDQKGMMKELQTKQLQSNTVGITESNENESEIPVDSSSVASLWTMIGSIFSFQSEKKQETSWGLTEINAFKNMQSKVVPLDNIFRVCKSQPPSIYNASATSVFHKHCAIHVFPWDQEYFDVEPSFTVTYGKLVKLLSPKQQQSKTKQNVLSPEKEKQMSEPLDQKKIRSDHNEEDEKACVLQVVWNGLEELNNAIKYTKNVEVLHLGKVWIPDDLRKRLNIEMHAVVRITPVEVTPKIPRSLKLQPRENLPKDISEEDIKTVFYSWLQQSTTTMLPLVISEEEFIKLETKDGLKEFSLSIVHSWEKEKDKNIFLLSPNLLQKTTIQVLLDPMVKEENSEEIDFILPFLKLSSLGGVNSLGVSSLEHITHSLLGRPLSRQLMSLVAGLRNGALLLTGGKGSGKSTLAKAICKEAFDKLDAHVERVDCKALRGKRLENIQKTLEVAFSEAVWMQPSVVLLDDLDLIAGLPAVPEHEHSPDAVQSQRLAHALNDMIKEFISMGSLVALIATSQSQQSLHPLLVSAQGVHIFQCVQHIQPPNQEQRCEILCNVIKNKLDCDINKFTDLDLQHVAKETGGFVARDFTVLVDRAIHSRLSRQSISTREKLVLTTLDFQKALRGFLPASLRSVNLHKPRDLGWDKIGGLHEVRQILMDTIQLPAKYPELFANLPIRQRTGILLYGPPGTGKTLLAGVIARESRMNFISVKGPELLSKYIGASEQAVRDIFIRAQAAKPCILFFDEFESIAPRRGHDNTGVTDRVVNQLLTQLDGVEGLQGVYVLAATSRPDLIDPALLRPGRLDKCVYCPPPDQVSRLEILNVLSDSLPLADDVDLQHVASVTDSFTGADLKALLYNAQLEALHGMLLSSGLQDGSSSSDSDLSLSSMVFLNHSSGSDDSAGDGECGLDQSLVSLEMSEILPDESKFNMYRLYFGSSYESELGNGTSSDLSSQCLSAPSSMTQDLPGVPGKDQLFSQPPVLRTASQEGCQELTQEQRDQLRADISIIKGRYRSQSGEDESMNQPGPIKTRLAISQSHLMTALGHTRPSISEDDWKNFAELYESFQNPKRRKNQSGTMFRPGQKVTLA
UniProt Q9BZ23: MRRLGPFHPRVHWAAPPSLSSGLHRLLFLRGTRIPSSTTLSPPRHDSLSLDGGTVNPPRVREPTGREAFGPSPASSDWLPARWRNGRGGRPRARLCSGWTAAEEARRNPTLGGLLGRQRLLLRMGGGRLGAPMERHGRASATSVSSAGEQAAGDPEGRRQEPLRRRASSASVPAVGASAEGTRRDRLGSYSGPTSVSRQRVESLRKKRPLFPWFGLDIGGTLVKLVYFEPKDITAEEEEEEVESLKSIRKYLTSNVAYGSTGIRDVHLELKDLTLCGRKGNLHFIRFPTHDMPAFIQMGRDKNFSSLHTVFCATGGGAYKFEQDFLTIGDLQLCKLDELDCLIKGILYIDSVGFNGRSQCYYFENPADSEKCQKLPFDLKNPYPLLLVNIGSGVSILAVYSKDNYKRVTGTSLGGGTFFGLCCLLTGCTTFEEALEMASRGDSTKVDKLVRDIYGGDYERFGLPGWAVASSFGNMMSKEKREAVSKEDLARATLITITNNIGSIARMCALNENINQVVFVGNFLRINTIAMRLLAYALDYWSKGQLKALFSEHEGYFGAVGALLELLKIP
UniProt Q13310, whole entry, looked up: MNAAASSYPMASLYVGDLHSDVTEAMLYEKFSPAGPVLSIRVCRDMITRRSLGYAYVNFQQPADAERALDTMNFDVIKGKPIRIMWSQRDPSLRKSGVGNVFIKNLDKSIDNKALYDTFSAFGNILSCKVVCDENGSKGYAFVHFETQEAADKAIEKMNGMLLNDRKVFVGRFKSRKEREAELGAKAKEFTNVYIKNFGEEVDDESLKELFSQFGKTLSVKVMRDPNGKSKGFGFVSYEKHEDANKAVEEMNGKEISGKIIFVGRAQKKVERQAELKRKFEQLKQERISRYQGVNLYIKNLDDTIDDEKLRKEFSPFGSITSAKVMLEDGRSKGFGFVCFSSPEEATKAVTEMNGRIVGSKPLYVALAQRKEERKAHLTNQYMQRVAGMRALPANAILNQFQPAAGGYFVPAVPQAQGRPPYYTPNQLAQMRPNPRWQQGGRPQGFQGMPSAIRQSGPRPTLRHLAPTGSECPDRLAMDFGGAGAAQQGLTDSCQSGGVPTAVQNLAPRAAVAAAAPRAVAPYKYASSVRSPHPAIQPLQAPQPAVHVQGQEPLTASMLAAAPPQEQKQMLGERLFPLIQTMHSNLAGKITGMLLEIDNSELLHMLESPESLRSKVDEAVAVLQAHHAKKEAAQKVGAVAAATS
UniProt Q9H0N5: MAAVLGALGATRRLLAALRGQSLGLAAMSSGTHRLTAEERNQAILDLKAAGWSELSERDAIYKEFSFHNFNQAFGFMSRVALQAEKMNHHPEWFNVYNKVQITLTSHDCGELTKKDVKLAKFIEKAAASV

Some of the results follow.

Compound in one assay: CC(C)N(C[C@H]1O[C@@H](n2cnc3c(N)ncnc32)[C@H](O)[C@@H]1O)[C@H]1C[C@@H](CCc2nc3cc(C(C)(C)C)ccc3[nH]2)C1 [pinometostat]
Nature of the assay: log2 fold change, soluble protein after heating vs DMSO (PISA); higher = thermal stabilisation; K562 cells, 10 uM, 30 min; active = over 0.2 and 3.5 SD of the protein, either way, in both replicates (recomputed). In outline:
(§1)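 Aliquots of K562 cells (2×10^6 cells/mL) treated with 10 μM compound for 30 min were heated for 3 min over 48°C-58°C. After pooling and extraction in PBS with 0.5% NP-40 at 4°C, soluble protein from a 21,000xg, 90 min spin was quantified by TMTpro 16plex LC-MS/MS with channel sums equalised. Thermal stability is expressed against control samples, from duplicates, as a log2 fold change.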
With PDXDC1 (UniProt Q6P996), the log2 fold change is inactive: 0.356.

With PAFAH1B1 (UniProt P43034), the log2 fold change is inactive: -0.042.

Consider PDZD8 (UniProt Q8NEN9), for which the log2 fold change is inactive: -0.017.

On to PEX12 (UniProt O00623), for which the log2 fold change is inactive: 0.026.

PCBD1 (UniProt P61457): the log2 fold change was inactive: 0.028.

In the case of PDIA5 (UniProt Q14554), the log2 fold change is inactive: 0.043.

For PDXK (UniProt O00764), the log2 fold change is inactive: -0.071.

On to PBLD (UniProt P30039), for which the log2 fold change is inactive: 0.18.

For PEX1 (UniProt O43933), the log2 fold change is inactive: -0.007.

On to PANK2 (UniProt Q9BZ23), for which the log2 fold change is inactive: 0.043.

Compound in the next assay: CC1=C(C(CC(=O)N1)C2=CC=C(C=C2)C(F)(F)F)C(=O)NC3=C(C=C4C(=C3)C=NN4)F
Described as above. In outline: as §1
For the target PCYOX1 (UniProt Q9UHG3), the log2 fold change is inactive: 0.015.

PDCL (UniProt Q13371): the log2 fold change was inactive: 0.05.

As for PDCD5 (UniProt O14737), the log2 fold change was inactive: 0.027.

For the target PAGR1 (UniProt Q9BTK6), the log2 fold change was inactive: 0.014.

As for PDCD11 (UniProt Q14690), the log2 fold change was inactive: 0.07.

For PDSS1 (UniProt Q5T2R2), the log2 fold change is inactive: -0.03.

Regarding PAK3 isoform 3 (UniProt O75914), the log2 fold change was inactive: -0.046.

As for PAIP2 (UniProt Q9BPZ3), the log2 fold change was inactive: -0.049.

On to PDF (UniProt Q9HBH1), for which the log2 fold change is inactive: -0.015.

With PANX1 (UniProt Q96RD7), the log2 fold change is inactive: 0.002.

Regarding PDHX (UniProt O00330), the log2 fold change was inactive: 0.083.

For PDHB (UniProt P11177), the log2 fold change is inactive: 0.026.

For PAK2 (UniProt Q13177), the log2 fold change is inactive: -0.023.

For the target PEX14 (UniProt O75381), the log2 fold change is inactive: -0.022.

As for PASK (UniProt Q96RG2), the log2 fold change is inactive: 0.049.

Take PCSK9 (UniProt Q8NBP7): the log2 fold change was inactive: 0.01.

For PAPSS1 (UniProt O43252), the log2 fold change is inactive: 0.004.

For PDIA4 (UniProt P13667), the log2 fold change is inactive: 0.004.

Consider PABPC4 isoform 3 (UniProt Q13310), for which the log2 fold change is inactive: 0.018.

PCBD2 (UniProt Q9H0N5): the log2 fold change was inactive: 0.005.

On to PDCL3 (UniProt Q9H2J4), for which the log2 fold change is inactive: 0.008.

As for PDLIM4 (UniProt P50479), the log2 fold change is inactive: 0.045.

Consider PCNA (UniProt P12004), for which the log2 fold change is inactive: 0.014.

In the case of PDXDC1 (UniProt Q6P996), the log2 fold change is inactive: 0.142.

Consider PAFAH1B1 (UniProt P43034), for which the log2 fold change was inactive: 0.008.

With PDZD8 (UniProt Q8NEN9), the log2 fold change was inactive: -0.011.

With PEX12 (UniProt O00623), the log2 fold change is inactive: -0.054.

In the case of PCBD1 (UniProt P61457), the log2 fold change is inactive: 0.009.

Take PDIA5 (UniProt Q14554): the log2 fold change is inactive: 0.008.

PDXK (UniProt O00764): the log2 fold change is inactive: 0.028.

Take PBLD (UniProt P30039): the log2 fold change is inactive: -0.012.

For PEX1 (UniProt O43933), the log2 fold change is inactive: -0.016.

As to PANK2 (UniProt Q9BZ23), the log2 fold change was inactive: -0.005.

Compound in another assay: CC1=C(C2=C(C=C1)C(=O)C3=CC=CC=C3N2CCCN)C
Described as above. In outline:
as §1
PCYOX1 (UniProt Q9UHG3): the log2 fold change is inactive: 0.003.

Turning to PDCL (UniProt Q13371), the log2 fold change was inactive: -0.154.

As to PDCD5 (UniProt O14737), the log2 fold change is inactive: 0.007.

Take PAGR1 (UniProt Q9BTK6): the log2 fold change was inactive: 0.021.

Regarding PDCD11 (UniProt Q14690), the log2 fold change is inactive: 0.066.

With PDSS1 (UniProt Q5T2R2), the log2 fold change is inactive: 0.008.

As to PAK3 isoform 3 (UniProt O75914), the log2 fold change is inactive: 0.011.

Turning to PAIP2 (UniProt Q9BPZ3), the log2 fold change is inactive: 0.082.

As to PDF (UniProt Q9HBH1), the log2 fold change was inactive: 0.05.

In the case of PANX1 (UniProt Q96RD7), the log2 fold change is inactive: 0.01.

With PDHX (UniProt O00330), the log2 fold change is inactive: -0.034.

For the target PDHB (UniProt P11177), the log2 fold change is inactive: 0.123.

In the case of PAK2 (UniProt Q13177), the log2 fold change was inactive: -0.01.

Regarding PEX14 (UniProt O75381), the log2 fold change is inactive: 0.011.

For PASK (UniProt Q96RG2), the log2 fold change was inactive: -0.034.

In the case of PCSK9 (UniProt Q8NBP7), the log2 fold change was inactive: 0.088.

Turning to PAPSS1 (UniProt O43252), the log2 fold change is inactive: -0.006.

Turning to PDIA4 (UniProt P13667), the log2 fold change was inactive: 0.002.

As to PABPC4 isoform 3 (UniProt Q13310), the log2 fold change was inactive: -0.179.

Consider PCBD2 (UniProt Q9H0N5), for which the log2 fold change is inactive: -0.013.

As for PDCL3 (UniProt Q9H2J4), the log2 fold change is inactive: -0.024.

Consider PDLIM4 (UniProt P50479), for which the log2 fold change was inactive: 0.018.

As to PCNA (UniProt P12004), the log2 fold change is inactive: 0.035.

PDXDC1 (UniProt Q6P996): the log2 fold change was inactive: 0.041.

As for PAFAH1B1 (UniProt P43034), the log2 fold change was inactive: 0.019.

In the case of PDZD8 (UniProt Q8NEN9), the log2 fold change is inactive: 0.03.

Take PEX12 (UniProt O00623): the log2 fold change is inactive: -0.047.

PCBD1 (UniProt P61457): the log2 fold change was inactive: 0.085.

As for PDIA5 (UniProt Q14554), the log2 fold change is inactive: 0.001.

With PDXK (UniProt O00764), the log2 fold change is inactive: -0.021.

As to PBLD (UniProt P30039), the log2 fold change is inactive: 0.062.

PEX1 (UniProt O43933): the log2 fold change was inactive: 0.014.

As to PANK2 (UniProt Q9BZ23), the log2 fold change is inactive: 0.082.
